Drawing on PMC8234060, this text covers binding for one molecule.

Experiment [1] has as its target T1, Sigma 1 receptor (mouse (endogenous in 661 W)), O55242.
T1 chain: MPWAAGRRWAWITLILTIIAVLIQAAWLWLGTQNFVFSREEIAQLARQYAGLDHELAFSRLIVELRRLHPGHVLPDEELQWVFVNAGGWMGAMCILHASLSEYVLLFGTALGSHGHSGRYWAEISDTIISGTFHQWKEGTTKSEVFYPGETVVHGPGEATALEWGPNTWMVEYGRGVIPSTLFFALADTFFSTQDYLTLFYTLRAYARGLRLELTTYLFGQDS
Kind of experiment: proximity ligation; Duolink PLA In Situ Orange kit on fixed, permeabilised 661 W cells, with or without (+)-PTZ (20 uM) for 3 h or 24 h; rabbit anti-Sig1R and mouse anti-NRF2; probes join at <40 nm. The conditions noted are these: remark: other sources report otherwise.

Experiment [2] deals with T1, Sigma 1 receptor (mouse (endogenous in …)). The experiment is described as follows: co-IP; 661 W cell lysate (500 ug total protein, Pierce IP lysis buffer) incubated with rabbit polyclonal anti-Sig1R overnight at 4 C; immune complexes precipitated by protein A/G agarose beads; immunoblot with anti-NRF2. The conditions noted are these: remark: other sources report otherwise. In general terms: A western blot detects proteins with antibodies after separation by electrophoresis.

No constants are given. Whether binding was seen depends on the method and setting. Binding seen in cells or lysates may run through a third protein. Some entries that bind do so weakly or less than the wild type.

B1: nuclear factor erythroid 2-related factor 2, Q60795 1-597 (protein)
chain: MMDLELPPPGLQSQQDMDLIDILWRQDIDLGVSREVFDFSQRQKDYELEKQKKLEKERQEQLQKEQEKAFFAQFQLDEETGEFLPIQPAQHIQTDTSGSASYSQVAHIPKQDALYFEDCMQLLAETFPFVDDHESLALDIPSHAESSVFTAPHQAQSLNSSLEAAMTDLSSIEQDMEQVWQELFSIPELQCLNTENKQLADTTAVPSPEATLTEMDSNYHFYSSISSLEKEVGNCGPHFLHGFEDSFSSILSTDDASQLTSLDSNPTLNTDFGDEFYSAFIAEPSDGGSMPSSAAISQSLSELLDGTIEGCDLSLCKAFNPKHAEGTMEFNDSDSGISLNTSPSRASPEHSVESSIYGDPPPGFSDSEMEELDSAPGSVKQNGPKAQPAHSPGDTVQPLSPAQGHSAPMRESQCENTTKKEVPVSPGHQKAPFTKDKHSSRLEAHLTRDELRAKALHIPFPVEKIINLPVDDFNEMMSKEQFNEAQLALIRDIRRRGKNKVAAQNCRKRKLENIVELEQDLGHLKDEREKLLREKGENDRNLHLLKRRLSTLYLEVFSMLRDEDGKPYSPSEYSLQQTRDGNVFLVPKSKKPDTKKN
B1: the binding result in experiment [1] and in experiment [2] was “binds” throughout.
